Common to all, as to assay: co-IP; whole-cell extracts (5 mg total protein) of vegetatively growing S. pombe strains; anti-HA (12CA5) and protein A sepharose, 4 h at 4 °C; washes up to 500 mM NaCl; blots with anti-HA (Pmk1–HA) and anti-GFP (Pek1–GFP)
In test [1] the target is T1, Pmk1^Sj–HA (S. japonicus wild-type Pmk1 construct) (S. japonicus) (UniProt B6K747).
T1 sequence: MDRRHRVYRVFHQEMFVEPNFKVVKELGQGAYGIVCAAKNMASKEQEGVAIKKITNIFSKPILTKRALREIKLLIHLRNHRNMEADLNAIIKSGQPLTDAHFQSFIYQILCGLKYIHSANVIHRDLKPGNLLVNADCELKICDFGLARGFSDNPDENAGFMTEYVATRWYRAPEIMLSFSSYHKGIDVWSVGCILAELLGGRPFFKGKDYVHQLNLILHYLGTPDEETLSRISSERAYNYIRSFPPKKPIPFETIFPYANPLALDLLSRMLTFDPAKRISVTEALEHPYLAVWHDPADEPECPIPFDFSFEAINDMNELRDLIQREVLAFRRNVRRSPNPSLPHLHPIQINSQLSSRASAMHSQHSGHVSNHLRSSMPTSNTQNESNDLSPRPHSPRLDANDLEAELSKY

Test [2] concerns the target T2, Pmk1^Sp (Δ82-105)–HA (S. pombe Pmk1 version lacking the conserved N-lobe motif) (S. pombe) (UniProt Q92398).
T2 sequence: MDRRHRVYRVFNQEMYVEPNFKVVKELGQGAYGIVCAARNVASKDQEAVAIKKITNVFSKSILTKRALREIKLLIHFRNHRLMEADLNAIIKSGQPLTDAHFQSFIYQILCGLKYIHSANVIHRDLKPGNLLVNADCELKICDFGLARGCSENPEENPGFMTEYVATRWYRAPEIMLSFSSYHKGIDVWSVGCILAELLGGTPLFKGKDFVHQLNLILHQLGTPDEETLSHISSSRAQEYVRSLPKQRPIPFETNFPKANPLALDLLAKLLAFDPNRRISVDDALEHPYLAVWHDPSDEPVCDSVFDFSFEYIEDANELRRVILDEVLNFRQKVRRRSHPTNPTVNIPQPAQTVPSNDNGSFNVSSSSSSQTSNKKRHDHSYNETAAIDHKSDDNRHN

For test [3], the target named is T3, Pmk1^Sp–HA (S. pombe wild-type Pmk1 construct) (S. pombe) (UniProt Q92398).
T3 sequence: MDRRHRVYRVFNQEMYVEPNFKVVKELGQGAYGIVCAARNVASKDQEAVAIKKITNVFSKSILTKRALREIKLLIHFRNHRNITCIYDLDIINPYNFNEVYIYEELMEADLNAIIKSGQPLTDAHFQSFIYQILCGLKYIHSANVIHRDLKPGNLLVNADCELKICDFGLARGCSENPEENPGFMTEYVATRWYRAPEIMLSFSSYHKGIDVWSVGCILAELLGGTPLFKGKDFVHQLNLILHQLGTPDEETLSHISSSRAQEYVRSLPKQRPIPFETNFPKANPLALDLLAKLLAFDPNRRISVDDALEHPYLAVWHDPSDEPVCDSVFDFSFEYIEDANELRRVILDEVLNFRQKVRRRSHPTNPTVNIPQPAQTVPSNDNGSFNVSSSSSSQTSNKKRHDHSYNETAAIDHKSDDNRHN

The source of these data is publication PMC8232204.

Results are given in words; binding and its absence hold for the method and conditions named. In cells and extracts the contact can be indirect. Some results given as binding are weak or reduced against the parent protein; the word gives no strength. Tags and fused reporters may be left off the sequences shown.

B1: Pek1–GFP (MAPKK) genomic fusion (enzyme, UniProt Q9Y884 1-363)
chain: MSKKPVLNLDTSNGFSEEYISHPERNDNQGIVEITDLVFSSESKLTQRKESRDSKTFVPSFLEELDDDHLHELVTNGGILYMNSLGEGVSGSVRKCRIRGTQMIFAMKTVLAAPNTALQKQLLRELKINRSCTSPYIVKYYGACYNNAECQLNIAMEYCGAGSLDAIYKRVRSQGGRTGERPLGKIAFGVLSGLSYLHDRKIIHRDIKPSNILLTSKGQVKLCDFGVSGELVNSLAGTFTGTSYYMAPERISGGSYTISSDIWSLGLTLMEVALNRFPFPPEGSPPPMPIELLSYIINMPPPLLPQEPGIKWSKSFQHFLCVCLDKDKTRRPGPQKMLTHPWVKAFERIHVDMEEFLRQVWSD
For the molecule B1, the binding result in test [1] is reported as “binds”; in test [2], “no binding”; in test [3], “binds”.
